The values below come from patent publication US20150284900A1, “Novel Activator for Hydrogen Peroxide and Its Application” (priority 2014, published 2015).

This data set is described as follows: Cotton fabric bleaching using the hydrogen peroxide activators. Particulars: 2 g fine cotton fabric; phosphate buffer pH 7.2; 36 mmol/L hydrogen peroxide; 0.5 g/L EDTA; 0.5 g/L SDBS; 30 mmol/L activator; 50° C. for 30 min.

Molecule `O=C1CCCCN1C(=O)c1cccnc1` [Activator 2] gave a CIE whiteness of 53.40.

`O=C1CCCCCN1C(=O)c1cccnc1` [Activator 3] came in with a CIE whiteness of 52.35.

As to `O=C1CCCCCCN1C(=O)c1cccnc1` [Activator 4], the CIE whiteness is 52.95.

In turn, `O=C1CCCCCCCN1C(=O)c1cccnc1` [Activator 5] yielded a CIE whiteness of 54.55.
